Source: patent US20160304578A1 (XYPHOS BIOSCIENCES, published 2016)
These are yes or no findings as the source states them, for the method shown. Some results given as binding are weak or reduced against the parent protein; the word gives no strength. Tags and fused reporters may be left off the sequences shown.

What was measured:
[1] = target: T1, mouse NKG2D-Fc (mouse) (UniProt O54709); experiment: competition ELISA: protein titrated against mouse NKG2D-Fc binding to plate-coated WT sMICA, detection with anti-Fc-HRP
T1 sequence (looked up): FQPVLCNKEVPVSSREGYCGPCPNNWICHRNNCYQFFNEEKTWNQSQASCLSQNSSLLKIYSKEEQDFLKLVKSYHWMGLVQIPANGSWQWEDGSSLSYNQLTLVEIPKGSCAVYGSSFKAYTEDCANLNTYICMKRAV

[2] = target: T1, mouse NKG2D-Fc (mouse); experiment: competition ELISA: mouse NKG2D-Fc binding to plate-coated MICA

B1: WT α1-α2 soluble MICA protein (ligand, UniProt Q29983 24-299, looked up)
chain: EPHSLRYNLTVLSWDGSVQSGFLTEVHLDGQPFLRCDRQKCRAKPQGQWAEDVLGNKTWDRETRDLTGNGKDLRMTLAHIKDQKEGLHSLQEIRVCEIHEDNSTRSSQHFYYDGELFLSQNLETKEWTMPQSSRAQTLAMNVRNFLKEDAMKTKTHYHAMHADCLQELRRYLKSGVVLRRTVPPMVNVTRSEASEGNITVTCRASGFYPWNITLSWRQDGVSLSHDTQQWGDVLPDGNGTYQTWVATRICQGEEQRFTCYMEHSGNHSTHPVPSGK
notes: also called WT MICA; WT NKG2DL
binding [1]: binds | binding [2]: binds
